Measurements reported in PubChem BioAssay AID1259267 (Sanger Institute, 2017).
Test: 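Essential and drug-synergistic knock-downs in GP5D bowel cancer cells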 (primary screen). System: human GP5D colorectal cancer cells. Reagent: siRNA pool against human genes. Treatment: anchor drugs at low dose: BYL719 1 µM, cetuximab 5 µg/ml, trametinib 10 nM, or DMSO vehicle. Detection: 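Mean replicate viability versus non-targeting pool, given as knock-down-alone robust z-score, DMSO fraction, and synergy with low-dose BYL719, cetuximab or trametinib (1 µM, 5 µg/ml, 10 nM)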. Direction: robust z-score, knock-down alone: higher = more viable cells. Call rule: 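Active (essential alone) if knock-down without drug gives robust z-score under -3; drug synergy does not count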. Meaning of the calls: active = essential alone; inactive = not essential.
In all, the deposit lists 794 reagents; this is a random part of them. Of all reagents, 9 (1.1%) were called active. 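Viability capped at 1; calls reflect loss of viability from knock-down alone, not synergy with drugs.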 Further read-outs or replicates are left out here. Reagent sequences are not shown. The record does not give: the amount of reagent, the time to read-out.

ASPM — robust z-score, knock-down alone = 0.274; Outcome = inactive
PRKAA2 — robust z-score, knock-down alone = 0.817; Outcome = inactive
TSKS — robust z-score, knock-down alone = 0.817; Outcome = inactive
SRC — robust z-score, knock-down alone = 0.817; Outcome = inactive
PDGFRB — robust z-score, knock-down alone = -0.0818; Outcome = inactive
IPMK — robust z-score, knock-down alone = 0.379; Outcome = inactive
PFKFB4 — robust z-score, knock-down alone = -0.433; Outcome = inactive
PSKH1 — robust z-score, knock-down alone = 0.817; Outcome = inactive
ERBB2 — robust z-score, knock-down alone = 0.817; Outcome = inactive
CDKN1B — robust z-score, knock-down alone = 0.777; Outcome = inactive
CDK3 — robust z-score, knock-down alone = 0.817; Outcome = inactive
PHKA1 — robust z-score, knock-down alone = 0.747; Outcome = inactive
RPS6KC1 — robust z-score, knock-down alone = 0.817; Outcome = inactive
CDK11A — robust z-score, knock-down alone = -2.78; Outcome = inactive
EIF2AK4 — robust z-score, knock-down alone = 0.817; Outcome = inactive

Records listed so far whose gene name starts with P or p (5):
PRKAA2 — robust z-score, knock-down alone = 0.817; Outcome = inactive
PDGFRB — robust z-score, knock-down alone = -0.0818; Outcome = inactive
PFKFB4 — robust z-score, knock-down alone = -0.433; Outcome = inactive
PSKH1 — robust z-score, knock-down alone = 0.817; Outcome = inactive
PHKA1 — robust z-score, knock-down alone = 0.747; Outcome = inactive

The listing continues.
CAMKK2 — robust z-score, knock-down alone = -1.25; Outcome = inactive
MYLK2 — robust z-score, knock-down alone = -1.76; Outcome = inactive
MAP3K13 — robust z-score, knock-down alone = 0.748; Outcome = inactive
BRSK2 — robust z-score, knock-down alone = 0.817; Outcome = inactive
BTK — robust z-score, knock-down alone = 0.729; Outcome = inactive
PMVK — robust z-score, knock-down alone = 0.817; Outcome = inactive
RIPK4 — robust z-score, knock-down alone = 0.812; Outcome = inactive
LATS2 — robust z-score, knock-down alone = -0.606; Outcome = inactive
MECOM — robust z-score, knock-down alone = 0.817; Outcome = inactive
PGK2 — robust z-score, knock-down alone = 0.369; Outcome = inactive
CDK20 — robust z-score, knock-down alone = 0.0826; Outcome = inactive
STK3 — robust z-score, knock-down alone = 0.817; Outcome = inactive
ROR2 — robust z-score, knock-down alone = 0.817; Outcome = inactive
